Laboratory results: patent US20190110476A1, “NOVEL ISOTHIAZOLAMIDES, PROCESSES FOR THEIR PREPARATION AND THEIR USE AS FUNGICIDES” (priority 2014, published 2019)
Some of these results come from one statement about several compounds together. At least one compound was matched to its structure with a doubt left.

Test system: Phytophthora infestans
Type: in vivo
Details: 500 ppm of active ingredient; tomato plants, preventive spray; evaluated 5 days after inoculation

SMILES: Nc1nsc(C(=O)NCc2ccncc2)c1Cl [I-032]
- efficacy: at least 70%

SMILES: Nc1nsc(C(=O)N(Cc2ccc(F)cc2F)C2CC2)c1Cl [I-053]
- efficacy: at least 70%
